No constants are given. Whether binding was seen depends on the method and setting. In cells and extracts the contact can be indirect. Some binding calls cover weakened binding; strength is not graded here.
Biological target: signal transducer and transcription activator 1 (STAT1) (human (endogenous in HT29 and SW480)) (UniProt P42224)
Assay: co-IP; lysates of HT29 and SW480 cells treated with 10 ng/mL IFN-γ (or PBS) for 24 hours, in one panel after SCR or GBP2 siRNA for 36 hours; immunoprecipitation with anti-STAT1 antibody, western blot

The chains behind the UniProt entries cited, without tags or fusion partners.
UniProt P42224: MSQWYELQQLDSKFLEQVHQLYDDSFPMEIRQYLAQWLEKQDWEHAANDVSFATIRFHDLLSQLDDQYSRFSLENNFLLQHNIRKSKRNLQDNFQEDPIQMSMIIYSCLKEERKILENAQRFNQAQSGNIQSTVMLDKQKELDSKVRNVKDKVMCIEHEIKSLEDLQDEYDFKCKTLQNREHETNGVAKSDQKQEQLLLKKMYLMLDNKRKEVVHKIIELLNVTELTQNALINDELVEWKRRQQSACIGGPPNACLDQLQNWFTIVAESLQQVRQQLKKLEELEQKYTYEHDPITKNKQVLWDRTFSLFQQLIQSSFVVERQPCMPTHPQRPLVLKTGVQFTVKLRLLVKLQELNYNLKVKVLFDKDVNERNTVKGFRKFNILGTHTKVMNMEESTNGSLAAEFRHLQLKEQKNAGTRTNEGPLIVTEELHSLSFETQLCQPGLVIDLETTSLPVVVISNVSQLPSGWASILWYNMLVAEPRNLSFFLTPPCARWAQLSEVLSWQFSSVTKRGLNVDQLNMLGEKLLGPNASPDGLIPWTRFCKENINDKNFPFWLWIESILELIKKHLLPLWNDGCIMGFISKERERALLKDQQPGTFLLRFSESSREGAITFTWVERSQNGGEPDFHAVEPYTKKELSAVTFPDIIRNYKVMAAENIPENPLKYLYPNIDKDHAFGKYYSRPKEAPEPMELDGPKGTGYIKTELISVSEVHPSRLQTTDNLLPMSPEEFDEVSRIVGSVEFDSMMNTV
UniProt P29350: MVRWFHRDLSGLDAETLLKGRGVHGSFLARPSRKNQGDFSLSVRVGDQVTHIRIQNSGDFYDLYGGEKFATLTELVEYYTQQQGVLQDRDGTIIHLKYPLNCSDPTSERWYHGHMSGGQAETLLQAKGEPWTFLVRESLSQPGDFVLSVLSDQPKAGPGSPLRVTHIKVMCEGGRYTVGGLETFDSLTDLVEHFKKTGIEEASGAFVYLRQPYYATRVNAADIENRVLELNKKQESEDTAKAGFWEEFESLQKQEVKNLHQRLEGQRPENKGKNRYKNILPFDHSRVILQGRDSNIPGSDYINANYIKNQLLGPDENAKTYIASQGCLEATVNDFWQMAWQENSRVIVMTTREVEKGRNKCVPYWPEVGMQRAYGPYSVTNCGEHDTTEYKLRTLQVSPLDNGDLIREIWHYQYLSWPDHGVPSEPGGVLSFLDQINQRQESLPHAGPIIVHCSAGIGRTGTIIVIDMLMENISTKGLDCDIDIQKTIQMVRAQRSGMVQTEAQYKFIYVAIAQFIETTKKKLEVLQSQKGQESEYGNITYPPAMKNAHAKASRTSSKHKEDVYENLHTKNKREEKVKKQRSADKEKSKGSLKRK

| Molecule | binding |
| --- | --- |
| SH2-containing protein tyrosine phosphatase 1 (SHP1) (from UniProt P29350 1-595) (enzyme) | binds |
| guanylate binding protein 2 (GBP2) (protein, UniProt P32456 1-591) MAPEINLPGPMSLIDNTKGQLVVNPEALKILSAITQPVVVVAIVGLYRTGKSYLMNKLAGKKNGFSLGSTVKSHTKGIWMWCVPHPKKPEHTLVLLDTEGLGDIEKGDNENDSWIFALAILLSSTFVYNSMGTINQQAMDQLHYVTELTDRIKANSSPGNNSVDDSADFVSFFPAFVWTLRDFTLELEVDGEPITADDYLELSLKLRKGTDKKSKSFNDPRLCIRKFFPKRKCFVFDWPAPKKYLAHLEQLKEEELNPDFIEQVAEFCSYILSHSNVKTLSGGIPVNGPRLESLVLTYVNAISSGDLPCMENAVLALAQIENSAAVEKAIAHYEQQMGQKVQLPTETLQELLDLHRDSEREAIEVFMKNSFKDVDQMFQRKLGAQLEARRDDFCKQNSKASSDCCMALLQDIFGPLEEDVKQGTFSKPGGYRLFTQKLQELKNKYYQVPRKGIQAKEVLKKYLESKEDVADALLQTDQSLSEKEKAIEVERIKAESAEAAKKMLEEIQKKNEEMMEQKEKSYQEHVKQLTEKMERDRAQLMAEQEKTLALKLQEQERLLKEGFENESKRLQKDIWDIQMRSKSLEPICNIL | binds |

From article PMC8984016
